Values of other authors in patent publication US20050232911A1, “Prevention and treatment of metabolic abnormalities associated with excess intramyocellular lipid” (priority 2004, published 2005).
For at least one compound, name, drawing or mass did not settle the structure.

Test system: patients at high risk for diabetes
Conditions: cited from earlier work

## Cc1c(C)c2c(c(C)c1O)CCC(C)(COc1ccc(CC3SC(=O)NC3=O)cc1)O2 (stereo not shown) [troglitazone]
  prevention of frank Type II Diabetes: associated with prevention of frank Type II Diabetes
